## Cleaved PARP after 72 h of treatment

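Human melanoma cell lines in 1,536-well plates were treated with two drugs together for 72 h, then fixed, stained and imaged. Each value is the cleaved-PARP-positive fraction of nuclei relative to DMSO-treated wells, in %, so that 100 equals the control and higher values mean more apoptosis. Every drug was used at one fixed concentration, the higher of two screened. The file gives one value for each pair and line, without errors, so small differences may be noise. Basal and induced levels differ widely between cell lines.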 This is part of the screen, not chosen by result. A dash means that no value is listed here.

Every entry is a combination with ZM336372 at 10 µM: Cc1ccc(NC(=O)c2cccc(N(C)C)c2)cc1NC(=O)c1ccc(O)cc1

Partner	A2058	SK-MEL-5	COLO 829	C32	MEL-HO	RPMI-7951	MZ2-MEL	COLO 800	SK-MEL-28	MeWo
CC(=O)O[C@@]12CO[C@@H]1C[C@H](O)[C@@]1(C)C(=O)[C@H](O)C3=C(C)[C@@H](OC(=O)[C@H](O)[C@@H](NC(=O)OC(C)(C)C)c4ccccc4)C[C@@](O)([C@@H](OC(=O)c4ccccc4)[C@H]21)C3(C)C at 0.0005 µM	1220	365	391	102	200	850	317	299	639	1100
Nc1nc(F)nc2c1ncn2[C@@H]1O[C@H](CO)[C@@H](O)[C@@H]1O at 1 µM	104	6810	102	171	81.0	48.5	72.7	101	2610	80.7
Cc1cc(Nc2cc(N3CCN(C)CC3)nc(/C=C/c3ccccc3)n2)n[nH]1 at 0.2 µM	125	100	443	99.4	135	307	170	223	162	83.0
OCc1c[nH]c2ccccc12 at 4 µM	60.8	18.6	79.4	29.3	68.5	108	309	80.4	246	150
Cn1cc(C2=C(c3cn(C4CCN(Cc5ccccn5)CC4)c4ccccc34)C(=O)NC2=O)c2ccccc21 at 4 µM	148	48.4	39.2	164	304	342	94.7	243	408	59.7
Cn1cncc1[C@@](N)(c1ccc(Cl)cc1)c1ccc2c(c1)c(-c1cccc(Cl)c1)cc(=O)n2C at 0.05 µM	88.6	629	141	53.3	73.4	209	152	32.9	80.6	87.8
O=C(O)c1ccc2c(c1)nc(Nc1cccc(Cl)c1)c1ccncc12 at 2 µM	228	67.1	137	145	120	216	323	35.2	29.4	129
CC[C@]1(O)C[C@H]2CN(CCc3c([nH]c4ccccc34)[C@@](C(=O)OC)(c3cc4c(cc3OC)N(C=O)[C@H]3[C@@](O)(C(=O)OC)[C@H](OC(C)=O)[C@]5(CC)C=CCN6CC[C@]43[C@@H]65)C2)C1 at 0.0005 µM	2650	358	108	608	79.8	205	30.6	74.0	87.6	148
Oc1nc(-c2ccc(C(F)(F)F)cc2)nc2c1CSCC2 at 10 µM	153	64.8	65.8	87.3	54.0	79.9	-	253	63.9	76.7
NCC(=O)Nc1ccc(-n2nc(C(F)(F)F)cc2-c2ccc3c(ccc4ccccc43)c2)cc1 at 5 µM	89.6	248	161	171	205	119	444	300	352	138
CC(C)C[C@H](NC(=O)[C@H](Cc1ccccc1)NC(=O)c1cnccn1)B(O)O at 0.005 µM	2910	6400	678	2720	140	1120	16800	140	186	3080
CO[C@H]1C[C@@H]2CC[C@@H](C)[C@@](O)(O2)C(=O)C(=O)N2CCCC[C@H]2C(=O)O[C@H]([C@H](C)C[C@@H]2CC[C@@H](OCCO)[C@H](OC)C2)CC(=O)[C@H](C)/C=C(\C)[C@@H](O)[C@@H](OC)C(=O)[C@H](C)C[C@H](C)/C=C/C=C/C=C/1C at 0.1 µM	52.8	42.0	17.4	92.6	64.8	80.5	-	196	97.7	47.5
O=C(CCCCCCC(=O)Nc1ccccc1)NO at 0.4 µM	63.3	88.0	99.4	87.3	37.5	197	-	60.4	190	54.8
COc1cc(Nc2ncc(F)c(Nc3ccc4c(n3)NC(=O)C(C)(C)O4)n2)cc(OC)c1OC at 2 µM	344	440	159	46.6	201	145	241	216	35.7	138
C[C@]1(O)C[C@@H](c2nc(-c3ccc4ccc(-c5ccccc5)nc4c3)c3c(N)nccn32)C1 at 2 µM	57.2	86.7	65.8	52.3	70.0	86.8	41.6	118	57.9	81.3
NC1(c2ccc(-c3nc4ccn5c(=O)[nH]nc5c4cc3-c3ccccc3)cc2)CCC1 at 2 µM	57.2	167	280	233	74.9	84.3	91.2	102	99.0	124

Data from the primary screen of doi:10.1371/journal.pone.0140310, rounded.